From patent US5334526
For at least one entry, the source does not settle the construct or the ends of the probe. For some of these results: Negatives hold for the conditions tested.

Amino acid sequences for entries named in this document (tags omitted). A change or cut given only in a name is not applied to a line headed by its entry.
UniProt P23657: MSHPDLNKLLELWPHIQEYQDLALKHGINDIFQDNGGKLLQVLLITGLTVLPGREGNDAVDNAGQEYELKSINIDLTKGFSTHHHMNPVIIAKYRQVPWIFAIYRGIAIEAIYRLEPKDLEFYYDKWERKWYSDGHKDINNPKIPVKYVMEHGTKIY

Experiments:
Experiment in all cases: enzyme reaction in vitro
[1] = system: AluI restriction endonuclease (Arthrobacter luteus (ATCC 21606)); settings: very low activity; AluI-size bands of lambda DNA; REact 1, 1 mM dAMP, 5 ug/ml tRNA, 37 C; protein in a lysate after overexpression; only the motif is given
[2] = target: PvuII restriction endonuclease (UniProt P23657); settings: methylated in vivo by AluI methylase at AGCT; resistant to PvuII digestion; REact 6, 37 C; purified native protein; only the motif is given
[3] = system: AluI restriction endonuclease; settings: REact 1, 37 C, purified native protein, only the motif is given

AGCT (double strand) [lambda DNA (AluI sites AGCT)]
activity on this sequence [1]: active

AGCT (double strand) [AluI-methylase-modified plasmid DNA (pACYCAluMI)]
activity on this sequence [2]: not active | activity on this sequence ([3]; methylated in vivo by AluI methylase at AGCT, pACYCAluMI resistant to AluI digestion (clone #40 only partially protected)): not active

AGCT (double strand) [plasmid DNA of clones (AluI sites)]
activity on this sequence ([3]; all 24 AluI-enriched clones cleaved, 30 min): active
